According to PubChem BioAssay AID256 (DTP/NCI, 2004):
The list shows only some results of the screen, not a fair sample: it gathers tests that were run many times, whatever their T/C, doses with no T/C, and many T/C values between a quarter and a half above the control. Other doses and runs of a compound stand elsewhere. T/C gives the treated animals as a percentage of the vehicle group. Some entries give survivors of the animals treated and no T/C: the source holds a T/C of zero for them, seemingly a mark for toxic or unscored doses. Counts of survivors are from the toxicity check (mostly the fifth day) where no day follows; animals may have died later. Schedules are NCI's codes, taken here to give the interval after Q, in days (D) or hours (H), and the number of doses after X. Some structures stand for samples that the source files as different forms (salt, stereo form or complex); doses refer to the form tested. Some entries were tested several times; the values are given in rising order. Where survival is the endpoint, the PubChem record calls one and a half times the control and up active, and a quarter to a half above the control has no call in these data; cut-offs in other NCI protocols can differ. Some T/C values are followed by the survivors on the day toxicity was checked, most often the fifth; where none is given, no animal had died by that day.

Tested on: CD2F1 mice, L1210 leukemia ip, survival T/C
Experiment: NCI In Vivo Anticancer Drug Screen. Data for tumor model L1210 Leukemia (intraperitoneal) in CD2F1 (CDF1) mice
Conditions: higher T/C = longer survival
How it was run: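 Each value reflects a quotient of treated over vehicle control outcomes in mice with a transplanted tumor.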

[1] = T/C endpoint: mean survival time, dose: 45.9 mg/kg/injection, schedule: Q01DX005 (iv), vehicle: saline with Tween-80

## Cc1cc(NCCCCCCNc2cc(C)nc3ccc(N)cc23)c2cc(N)ccc2n1
T/C endpoint: mean survival time, dose: 4.5 mg/kg/injection, schedule: Q01DX005 (iv), vehicle: water
  survivor count: 3 of 10
T/C endpoint: mean survival time, dose: 4.51 mg/kg/injection, schedule: Q01DX005 (iv), vehicle: water
  survivor count: 0 of 10
T/C endpoint: mean survival time, dose: 4.9 mg/kg/injection, schedule: Q08HX009 (ip), vehicle: saline with Tween-80
  T/C: 126 % of control
T/C endpoint: mean survival time, dose: 5.0 mg/kg/injection, schedule: Q08HX009 (iv), vehicle: water
  survivor count: 4 of 10
T/C endpoint: mean survival time, dose: 6.0 mg/kg/injection, schedule: Q01DX005 (iv), vehicle: water
  survivor count: 0 of 10
T/C endpoint: mean survival time, dose: 6.01 mg/kg/injection, schedule: Q01DX005 (iv), vehicle: water
  survivor count: 0 of 9
T/C endpoint: mean survival time, dose: 6.01 mg/kg/injection, schedule: Q01DX009 (ip), vehicle: water
  T/C: 127 % of control
T/C endpoint: mean survival time, dose: 6.25 mg/kg/injection, schedule: Q01DX009 (ip), vehicle: water
  survivor count: 6 of 10
T/C endpoint: mean survival time, dose: 8.0 mg/kg/injection, schedule: Q01DX005 (iv), vehicle: water
  survivor count: 0 of 10
T/C endpoint: mean survival time, dose: 8.01 mg/kg/injection, schedule: Q01DX005 (iv), vehicle: water
  survivor count: 0 of 10
T/C endpoint: mean survival time, dose: 8.01 mg/kg/injection, schedule: Q01DX009 (ip), vehicle: water
  T/C: 134 % of control
T/C endpoint: mean survival time, dose: 8.2 mg/kg/injection, schedule: Q01DX009 (ip), vehicle: saline with Tween-80
  T/C: 128 % of control
T/C endpoint: mean survival time, dose: 9.4 mg/kg/injection, schedule: Q01DX009 (ip), vehicle: saline with Tween-80
  T/C: 121, 124, 127, 128 % of control
T/C endpoint: mean survival time, dose: 9.4 mg/kg/injection, schedule: Q01DX009 (ip), vehicle: water
  T/C: 127 % of control
T/C endpoint: mean survival time, dose: 9.6 mg/kg/injection, schedule: Q01DX009 (ip), vehicle: water
  T/C: 129 % of control
T/C endpoint: mean survival time, dose: 9.8 mg/kg/injection, schedule: Q08HX009 (ip), vehicle: saline with Tween-80
  T/C: 134 % of control
T/C endpoint: mean survival time, dose: 10.0 mg/kg/injection, schedule: Q08HX009 (iv), vehicle: water
  survivor count: 0 of 10
T/C endpoint: mean survival time, dose: 10.7 mg/kg/injection, schedule: Q01DX005 (iv), vehicle: water
  survivor count: 0 of 10 and 0 of 8
T/C endpoint: mean survival time, dose: 10.7 mg/kg/injection, schedule: Q01DX009 (ip), vehicle: water
  T/C: 142 % of control
T/C endpoint: mean survival time, dose: 10.9 mg/kg/injection, schedule: Q01DX009 (ip), vehicle: saline with Tween-80
  T/C: 132 % of control
T/C endpoint: mean survival time, dose: 12.5 mg/kg/injection, schedule: Q01DX009 (ip), vehicle: water
  T/C: 136 and 147 % of control
T/C endpoint: mean survival time, dose: 12.8 mg/kg/injection, schedule: Q08HX009 (ip), vehicle: water
  T/C: 139 % of control
T/C endpoint: mean survival time, dose: 14.2 mg/kg/injection, schedule: Q01DX005 (iv), vehicle: water
  survivor count: 0 of 10
T/C endpoint: mean survival time, dose: 14.2 mg/kg/injection, schedule: Q01DX009 (ip), vehicle: water
  T/C: 136 % of control
T/C endpoint: mean survival time, dose: 14.7 mg/kg/injection, schedule: Q01DX009 (ip), vehicle: saline with Tween-80
  T/C: 131 % of control
T/C endpoint: mean survival time, dose: 16.7 mg/kg/injection, schedule: Q01DX009 (ip), vehicle: water
  survivor count: 2 of 10 and 5 of 10
T/C endpoint: mean survival time, dose: 18.8 mg/kg/injection, schedule: Q01DX009 (ip), vehicle: saline with Tween-80
  T/C: 122, 145, 147, 149 % of control
T/C endpoint: mean survival time, dose: 19.0 mg/kg/injection, schedule: Q01DX005 (iv), vehicle: water
  survivor count: 0 of 10
T/C endpoint: mean survival time, dose: 19.0 mg/kg/injection, schedule: Q01DX009 (ip), vehicle: water
  T/C: 143 % of control
T/C endpoint: mean survival time, dose: 19.2 mg/kg/injection, schedule: Q01DX009 (ip), vehicle: water
  T/C: 142 % of control [9 of 10 alive]
T/C endpoint: mean survival time, dose: 20.0 mg/kg/injection, schedule: Q08HX009 (iv), vehicle: water
  survivor count: 0 of 10
T/C endpoint: mean survival time, dose: 22.7 mg/kg/injection, schedule: Q01DX009 (ip), vehicle: saline with Tween-80
  T/C: 127 % of control
T/C endpoint: mean survival time, dose: 25.0 mg/kg/injection, schedule: Q01DX009 (ip), vehicle: water
  T/C: 129 % of control [9 of 10 alive]
T/C endpoint: mean survival time, dose: 25.3 mg/kg/injection, schedule: Q01DX005 (iv), vehicle: water
  survivor count: 0 of 9
T/C endpoint: mean survival time, dose: 25.6 mg/kg/injection, schedule: Q08HX009 (ip), vehicle: water
  survivor count: 2 of 8
T/C endpoint: mean survival time, dose: 29.7 mg/kg/injection, schedule: Q01DX009 (ip), vehicle: water
  survivor count: 1 of 10
T/C endpoint: mean survival time, dose: 33.8 mg/kg/injection, schedule: Q01DX005 (iv), vehicle: water
  survivor count: 0 of 10
T/C endpoint: mean survival time, dose: 33.8 mg/kg/injection, schedule: Q01DX009 (ip), vehicle: water
  survivor count: 2 of 10
T/C endpoint: mean survival time, dose: 37.5 mg/kg/injection, schedule: Q01DX009 (ip), vehicle: saline with Tween-80
  T/C: 134, 138, 150, 169, 173 % of control
T/C endpoint: mean survival time, dose: 38.5 mg/kg/injection, schedule: Q01DX009 (ip), vehicle: water
  survivor count: 0 of 10
T/C endpoint: mean survival time, dose: 40.4 mg/kg/injection, schedule: Q01DX009 (ip), vehicle: saline with Tween-80
  T/C: 138 % of control
T/C endpoint: mean survival time, dose: 45.0 mg/kg/injection, schedule: Q01DX005 (iv), vehicle: water
  survivor count: 0 of 10
T/C endpoint: mean survival time, dose: 45.0 mg/kg/injection, schedule: Q01DX009 (ip), vehicle: water
  survivor count: 0 of 10
T/C endpoint: mean survival time, dose: 45.0 mg/kg/injection, schedule: Q01DX009 (sc), vehicle: water
  T/C: 134 % of control
[1]
  T/C: 135 % of control [9 of 10 alive]
  survivor count: 4 of 10
T/C endpoint: mean survival time, dose: 45.9 mg/kg/injection, schedule: Q01DX009 (sc), vehicle: saline with Tween-80
  T/C: 130 % of control
T/C endpoint: mean survival time, dose: 50.0 mg/kg/injection, schedule: Q01DX009 (ip), vehicle: water
  survivor count: 1 of 10
T/C endpoint: mean survival time, dose: 52.8 mg/kg/injection, schedule: Q01DX009 (ip), vehicle: water
  survivor count: 0 of 10
T/C endpoint: mean survival time, dose: 60.0 mg/kg/injection, schedule: Q01DX005 (iv), vehicle: water
  survivor count: 0 of 10
T/C endpoint: mean survival time, dose: 60.0 mg/kg/injection, schedule: Q01DX009 (ip), vehicle: water
  survivor count: 0 of 10
T/C endpoint: mean survival time, dose: 60.0 mg/kg/injection, schedule: Q01DX009 (sc), vehicle: water
  T/C: 141 % of control
T/C endpoint: mean survival time, dose: 71.8 mg/kg/injection, schedule: Q01DX009 (ip), vehicle: saline with Tween-80
  T/C: 137 % of control
T/C endpoint: mean survival time, dose: 75.0 mg/kg/injection, schedule: Q01DX009 (ip), vehicle: saline with Tween-80
  T/C: 138, 143 [9 of 10 alive], 148 [9 of 10 alive], 153, 154 % of control
T/C endpoint: mean survival time, dose: 100.0 mg/kg/injection, schedule: Q01DX009 (ip), vehicle: water
  survivor count: 0 of 10
T/C endpoint: mean survival time, dose: 133.0 mg/kg/injection, schedule: Q04DX003 (ip), vehicle: saline with Tween-80
  T/C: 125 % of control [5 of 6 alive]
T/C endpoint: mean survival time, dose: 150.0 mg/kg/injection, schedule: Q01DX009 (ip), vehicle: saline with Tween-80
  survivor count: 3 of 10
T/C endpoint: mean survival time, dose: 156.8 mg/kg/injection, schedule: Q08HX009 (ip), vehicle: saline with Tween-80
  survivor count: 5 of 10
T/C endpoint: mean survival time, dose: 200.0 mg/kg/injection, schedule: Q04DX003 (ip), vehicle: saline with Tween-80
  T/C: 131 % of control
T/C endpoint: mean survival time, dose: 200.0 mg/kg/injection, schedule: Q04DX003 (ip), vehicle: saline
  T/C: 127 % of control
T/C endpoint: mean survival time, dose: 235.2 mg/kg/injection, schedule: Q01DX009 (ip), vehicle: saline with Tween-80
  survivor count: 2 of 10
T/C endpoint: mean survival time, dose: 300.0 mg/kg/injection, schedule: Q01DX009 (ip), vehicle: saline with Tween-80
  survivor count: 0 of 6 and 5 of 10
T/C endpoint: mean survival time, dose: 400.0 mg/kg/injection, schedule: Q04DX003 (ip), vehicle: saline
  T/C: 148 % of control
T/C endpoint: median survival time, dose: 25.0 mg/kg/injection, schedule: Q01DX009 (ip), vehicle: water
  T/C: 134 % of control [7 of 8 alive]
